Reference: PubChem BioAssay AID504744 (Drosophila RNAi Screening Center, 2011)
In all, the deposit lists about 23,000 reagents; this is a random part of those that have a named target and a result. Over the whole deposit, 98 (0.43%) were called active. 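Only hit calls are given; the phospho-dAkt signals, z-scores and hit direction were not deposited.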 Names joined by + are all predicted targets of the reagent.

Assay: 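Identify dsRNAs that increase or decrease phospho-dAkt after insulin treatment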 (primary screen)
Cell system: Drosophila Kc167 cells
Reagent: long dsRNA against Drosophila genes, 250 ng dsRNA per well of a 384-well plate
Time to read-out: 3 days of knock-down, then overnight serum-free starvation before stimulation
Challenge: bovine insulin at 387 nM for 10 minutes after 12 h without serum
Read-out: 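Per-well phospho-dAkt level from an in-cell fluorescent antibody stain, divided by a DNA-dye signal; log2 residuals turned into z-scores that take cell number into account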
Call rule: 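Hit in the insulin screen when the two-replicate mean z-score is more extreme than plus or minus 2.5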

no.	gene	DRSC id	Call
1	defl	DRSC10300	inactive
2	CG10418	DRSC09720	inactive
3	Mst33A	DRSC03371	inactive
4	Eglp2	DRSC04294	inactive
5	CG42502 + CG10570	DRSC02071	inactive
6	Ilp7	DRSC17895	inactive
7	CG11313	DRSC14295	inactive
8	CG32733 (retired record)	DRSC17481	inactive
9	pip	DRSC11382	inactive
10	btv	DRSC01615	inactive
11	btv	DRSC02449	inactive
12	CG3544	DRSC00613	inactive
13	ppk7	DRSC03236	inactive
14	CG6628	DRSC10679	inactive
15	CG12111	DRSC17808	inactive
16	XNP	DRSC15594	inactive
17	Gr98b	DRSC21675	inactive
18	CG42564	DRSC12518	inactive
19	Ptp4E	DRSC18701	inactive
20	CG13775	DRSC02279	inactive
21	CG13667	DRSC10028	inactive
22	CG3610	DRSC15502	inactive
23	CalpB	DRSC11109	inactive
24	scb	DRSC05542	inactive
25	scb	DRSC07678	inactive
26	Alg2	DRSC08298	inactive
27	CG10029	DRSC12498	inactive
28	Ddr	DRSC00922	inactive
29	Ddr	DRSC00923	inactive
30	Ddr	DRSC02150	inactive
31	Ddr	DRSC03229	inactive
32	Ddr	DRSC03230	inactive
33	Ddr	DRSC22818	inactive
34	insv	DRSC00579	inactive
35	CG33125	DRSC00145	inactive
36	CG12661	DRSC17864	inactive
37	l(3)62Be (retired record)	DRSC08231	inactive
38	Pgant4	DRSC00717	inactive
39	cmet	DRSC03511	inactive
40	LysP	DRSC08676	inactive
41	ClC-b	DRSC07220	inactive
42	BORCS6	DRSC08514	inactive
43	CG31244	DRSC21589	inactive
44	CG46441	DRSC15561	inactive
45	Sema2a	DRSC07551	inactive
46	Ilp2	DRSC10968	inactive
47	CG8219	DRSC10971	inactive
48	Rrp1	DRSC00784	inactive
49	Dph1	DRSC09851	inactive
50	mthl10	DRSC08504	inactive
51	mthl10	DRSC08505	inactive
52	CG15753 (retired record)	DRSC19718	inactive
53	Osi10b	DRSC12279	inactive
54	Ir47a	DRSC06215	inactive
55	CSN3	DRSC11859	inactive
56	CG13862	DRSC14712	inactive
57	Acbp5	DRSC10548	inactive
58	CG3081	DRSC18571	inactive
59	Srp19	DRSC11288	inactive
60	CtsF	DRSC12056	inactive
61	CtsF	DRSC12195	inactive
62	CtsF	DRSC12196	inactive
63	peng	DRSC20583	inactive
64	eIF2Bgamma	DRSC07100	inactive
65	tipE	DRSC08738	inactive
66	CecB	DRSC16605	inactive
67	CG3408	DRSC10360	inactive
68	Ssl1	DRSC11634	inactive
69	Atg4b	DRSC15988	inactive
70	net	DRSC00309	inactive
71	CG17570	DRSC01770	inactive
72	CG17570	DRSC03754	inactive
73	CG30371	DRSC06835	inactive
74	Polr2G	DRSC16068	inactive
75	Dgp-1	DRSC07400	inactive
76	crb	DRSC16927	inactive
77	CheA86a	DRSC12839	inactive
78	Cyp4d8	DRSC11131	inactive
79	Or35a	DRSC03389	inactive
80	Dic3	DRSC06058	inactive
81	bys	DRSC18748	inactive
82	CG2898	DRSC18238	inactive
83	Csp	DRSC11860	inactive
84	Rint1	DRSC11010	inactive
85	CG10934	DRSC06017	inactive
86	Atg10 + CG12822	DRSC06796	inactive
87	mus304	DRSC11372	inactive
88	CG33116	DRSC02045	inactive
89	CG13114	DRSC02212	inactive
90	CG4229	DRSC10407	inactive
91	TTLL1A	DRSC20121	inactive
92	Gr98d	DRSC14571	inactive
93	Rtc1	DRSC20285	inactive
94	l(2)34Fd	DRSC01911	inactive
95	CG31407	DRSC12761	inactive
96	CG3687	DRSC06850	inactive
97	phr	DRSC07662	inactive
98	CheA87a	DRSC14839	inactive
99	Dhx15	DRSC06036	inactive
100	CG8541	DRSC10989	inactive
101	Nepl14	DRSC15631	inactive
102	okr	DRSC00834	inactive
103	ND-23	DRSC15526	inactive
104	CG42506 (retired record) + CG43759	DRSC19464	inactive
105	CG42506 (retired record) + CG43759	DRSC19543	inactive
106	RpS15Ab + RpS15Aa	DRSC06129	inactive
107	RpS15Ab + RpS15Aa	DRSC19831	inactive
108	Gr89a	DRSC15023	inactive
109	p23	DRSC15158	inactive
110	CG10339	DRSC04065	inactive
111	CG15712	DRSC06583	inactive
112	Ric	DRSC07532	inactive
113	Whamy	DRSC14574	inactive
114	CG13018	DRSC06274	inactive
115	CG6184	DRSC15986	inactive
116	Tmlh	DRSC15563	inactive
117	Cdk2	DRSC16921	inactive
118	CG15638	DRSC01875	inactive
119	ea	DRSC16939	inactive
120	CG7655	DRSC16275	inactive
121	ZnT33D	DRSC02591	inactive
122	CG8665	DRSC03098	inactive
123	Gyc76C + CG42637	DRSC11180	inactive
124	mRpS31	DRSC10556	inactive
125	CG15699 (retired record)	DRSC06571	inactive
126	JhI-26	DRSC06851	inactive
127	CG17806	DRSC15276	inactive
128	CG6984	DRSC07013	inactive
129	Nse1	DRSC02147	inactive
130	CG30413	DRSC04001	inactive
131	lz	DRSC18790	inactive
132	lz	DRSC22302	inactive
133	SH3PX1	DRSC11139	inactive
134	CG15203	DRSC19650	inactive
135	CG12402	DRSC14508	inactive
136	CG2076	DRSC19832	inactive
137	CG42369	DRSC03244	inactive
138	Imp	DRSC18861	inactive
139	Imp	DRSC20255	inactive
140	CG3123	DRSC00570	inactive
141	Spt7	DRSC19997	inactive
142	CG10104	DRSC05964	inactive
143	CG33267	DRSC09120	inactive
144	AnxB11	DRSC19331	inactive
145	vnc + CG42455	DRSC09867	inactive
146	CG42720 (retired record)	DRSC22549	inactive
147	CG6961 + CG18259	DRSC19799	inactive
148	CG6961 + CG18259	DRSC20019	inactive
149	Dpck	DRSC12575	inactive
150	CG11590	DRSC19411	inactive
151	CG3165	DRSC00573	inactive
152	CG11828	DRSC14394	inactive
153	CG11828	DRSC22580	inactive
154	AGO2	DRSC09999	inactive
155	AGO2	DRSC10847	inactive
156	TBC1d7	DRSC15985	inactive
157	thoc7	DRSC08512	inactive

A few values from the list.
Alg2 [DRSC08298], Call → inactive
Entry for CSN3 [DRSC11859] in “Call”: inactive
p23 [DRSC15158], Call = inactive
Entry of eIF2Bgamma [DRSC07100] under “Call”: inactive
For “Call”, Polr2G [DRSC16068] shows inactive
Under “Call”, CG11313 [DRSC14295] shows inactive
